Data as given in PubChem BioAssay AID1259326 (Drosophila RNAi Screening Center, 2017)
Purpose: 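RNAi screen for genes modifying zinc chloride toxicity in fly cells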. Cells: Drosophila S2R+ cells. Knock-down reagent: long dsRNA against Drosophila genes. Duration: about 5 days (4 days of RNAi, then 1 day of zinc). Challenge: zinc chloride added to 15 mM final for one day. Detection: 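Cellular ATP measured by luciferase light as a viable-cell proxy, after 4 days of RNAi and 1 day in 15 mM zinc chloride; replicate z-scores averaged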. Direction: averaged z-score: higher = more ATP than other wells, i.e. more surviving cells, after zinc; ATP luminescence: higher = more ATP, i.e. more surviving cells. Active means: 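Active if the averaged z-score exceeds 1.5 or falls under -1.5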.
This is a random part of 573 deposited reagents. 39 of them (6.8%) count as active. 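All actives have raised ATP, meaning more surviving cells; in these data active calls sit at averaged z-scores near 1.5 or above.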 Raw values are not corrected between plates. Entries without a mark were called inactive. A plus sign joins genes that one reagent is predicted to hit. Not given: the amount of reagent.

| target | amplicon | averaged z-score | ATP luminescence, replicate 1 | ATP luminescence, replicate 2 |
| --- | --- | --- | --- | --- |
| Mtl | DRSC16751 | -0.39 | 88280 | 71985 |
| Mtl | DRSC36493 | -0.191 | 75675 | 75090 |
| Mtl | DRSC41229 | -0.25 | 63067 | 81583 |
| Cdc37 | DRSC08648 | 0.117 | 68949 | 67303 |
| Cdc37 | DRSC27723 | -0.0775 | 95272 | 76856 |
| Cdc37 | DRSC38011 | -0.155 | 81539 | 78177 |
| GAPcenA | DRSC10771 | -0.557 | 70013 | 76342 |
| GAPcenA | DRSC41200 | -0.654 | 54733 | 72328 |
| Atg17 | DRSC12221 | -0.0831 | 80630 | 93747 |
| Atg17 | DRSC41170 | -0.235 | 65142 | 71659 |
| SNF4Agamma | DRSC16847 | 0.566 | 1.16e5 | 79858 |
| SNF4Agamma | DRSC31404 | 0.0775 | 83212 | 80493 |
| SNF4Agamma | DRSC40676 | 0.181 | 73220 | 77422 |
| niki | DRSC14285 | -0.13 | 1.08e5 | 67577 |
| niki | DRSC31199 | 0.237 | 74043 | 76102 |
| niki | DRSC36953 | -0.372 | 73186 | 68607 |

The list goes on; the last 3 above are carried over.
| target | amplicon | averaged z-score | ATP luminescence, replicate 1 | ATP luminescence, replicate 2 |
| --- | --- | --- | --- | --- |
| niki | DRSC14285 | -0.13 | 1.08e5 | 67577 |
| niki | DRSC31199 | 0.237 | 74043 | 76102 |
| niki | DRSC36953 | -0.372 | 73186 | 68607 |
| CG42638 + Trpml | DRSC11032 | 0.29 | 1.07e5 | 80784 |
| CG42638 + Trpml | DRSC39630 | -0.128 | 79365 | 60358 |
| Rpn1 | DRSC11274 | 0.639 | 96223 | 1.01e5 |
| Rpn1 | DRSC32192 | -0.296 | 69944 | 68761 |
| Rpn1 | DRSC38454 | 0.719 | 1.10e5 | 75776 |
| CG5103 | DRSC10481 | 0.151 | 82088 | 94473 |
| CG5103 | DRSC41191 | -0.0953 | 63890 | 83906 |
| Atg12 | DRSC09803 | 0.506 | 1.05e5 | 1.38e5 |
| Atg12 | DRSC41151 | 0.198 | 65657 | 84609 |
| Atg5 | DRSC18112 | 0.457 | 1.12e5 | 68988 |
| Atg5 | DRSC40922 | 0.251 | 83357 | 80167 |
| Atg5 | DRSC41154 | -0.39 | 63150 | 69773 |
| CG9784 | DRSC20210 | -0.516 | 83340 | 72088 |
| CG9784 | DRSC28204 | -0.56 | 80355 | 63513 |
| CG9784 | DRSC41208 | -0.0966 | 74352 | 73596 |
| Adsl | DRSC15500 | -0.555 | 83420 | 87903 |
| Adsl | DRSC41182 | -0.0648 | 67602 | 76050 |
